# Patent US11980632B2 (priority 2020, dated 2024)
# At least one compound was matched to its structure with a doubt left.
# Tested on: corona-pseudovirus
# Assay type: cell-based, SARS-CoV-2
structure (smiles),measurement,value
CCC(CC)COC(=O)[C@H](C)N[P@](=O)(OC[C@H]1O[C@@](C#N)(c2ccc3c(N)ncnn23)[C@H](O)[C@@H]1O)Oc1ccccc1 [Remdesivir],infection with the corona-pseudovirus (degree of infection depending on drug concentration),inhibited in a concentration-dependent manner
